From patent publication US5441563A, “Highly insoluble azole embossing inhibitor and the use thereof” (Armstrong World Industries, Inc., priority 1994, dated 1995)

Experiments:
[1] = Ghosting (in-roll migration of inhibitor), accelerated bench top test (Table II); set-up: key: 1: Excellent; 2: Very Good; 3: Good; 4: Fair; 5: Poor; None; conditions: after 3 days; 120 °F, 1.4 psi
[2] = Depth of chemical embossing of printed foamable plastisol (Table I); conditions: 9 mil plastisol, 201 °C, 1.3 min
[3] = Ghosting (in-roll migration of inhibitor), accelerated bench top test (Table II); set-up: key: None; SL: Slight; Severe (after 3 days); conditions: after 3 days; 120 °F, 1.4 psi
[4] = Embossing definition over time; conditions: printed sheets from the ghosting test
[5] = cationic ink from cationic dispersion (inks of Examples 5, 9, 11; 11.54% TTA-P, 12.03% BTA-P, 12.10% HTTA-P)

Compound	Ghosting [1]	Ghosting [3]	also measured
N,N'-bis(tolyltriazol-1-yl methyl) piperazine [TTA-P]	N		Chemical Embossing Depth ([2]; anionic ink from anionic dispersion (Example 7), 11.24% TTA-P): 9.1 mils; Chemical Embossing Depth ([2]; anionic ink, direct addition (Example 13), 12.93% TTA-P): 10.8 mils; Chemical Embossing Depth [2, 5]: 10.0 mils; Chemical Embossing Depth ([2]; cationic ink, direct addition (Example 12), 12.93% TTA-P): 10.6 mils
O=C(O)c1ccc(S(=O)(=O)NCn2nnc3ccccc32)cc1 [BTA-4CBSA, N-(Benzotriazol-1-yl Methyl)-4'-Carboxybenzene Sulfonamide]		SL	
Tolyltriazole [TTA, reference compound]		S	Embossing definition over time [4]: poor embossing definition over time
O=S(=O)(NCn1nnc2ccccc21)c1ccccc1 [BTA-BSA, 1-(1'-benzenesulfonamido) methyl benzotriazole]		S	
1Bis(hydroxyethyl)aminomethyltotyltriazole [TTA-HE, reference compound]		S	
CN(Cn1nnc2ccccc21)C(=O)N(C)Cn1nnc2ccccc21 [BTA-DMU, 1,3-Bis(benzotriazol-1'-ylmethyl) N,N'-dimethyl urea]		SL	
O=S(=O)(NCn1nnc2ccccc21)c1cccc2c(S(=O)(=O)NCn3nnc4ccccc43)cccc12 [BTA-NDSA, 1(1',5'-naphthalenedisulfonamido) methyl benzotriazole]	N		
O=C(O)CN(Cn1nnc2ccccc21)Cn1nnc2ccccc21 [BTA-G, N,N-bis(benzotriazol-1-ylmethyl) glycine]		S	
c1ccc2c(c1)nnn2CNCn1nnc2ccccc21 [BTA-A, bis(benzotriazol-1-ylmethyl) amine]		S	
c1ccc2[nH]nnc2c1 [BTA, Benzotriazole, reference compound]		S	Embossing definition over time [4]: poor embossing definition over time
c1ccc2[nH]cnc2c1 [BI, Benzimidazole]		S	
O=C(NN(Cn1nnc2ccccc21)Cn1nnc2ccccc21)c1ccccc1 [BTA-HYR, 1-Bis(Benzotriazol-1'-yl Methyl)-2-Benzoyl Hydrazide]	N		
ON(Cn1nnc2ccccc21)Cn1nnc2ccccc21 [BTA-NOH, N,N-bis (benzotriazol-1-yl methyl) hydroxylamine]		S	
O=S(=O)(NCn1nnc2ccccc21)c1cccc(S(=O)(=O)NCn2nnc3ccccc32)c1 [BTA-BDSA, 1(1',3'-benzenedisulfonamido)methyl benzotriazole]	N		
c1ccc2c(c1)nnn2CN1CCN(Cn2nnc3ccccc32)CC1 [BTA-P, N,N'-bis(benzotriazol-1-ylmethyl) piperazine]	N		Chemical Embossing Depth [2, 5]: 7.5 mils
S=C(NCn1nnc2ccccc21)NCn1nnc2ccccc21 [BTA-TU, 1,3-bis(benzotriazol-1-ylmethyl) thiourea]	N		
O=C(NCn1nnc2ccccc21)NCn1nnc2ccccc21 [BTA-U, 1,3-bis(benzotriazol-1'-ylmethyl) urea]	N		
c1ccc2c(c1)ncn2CN1CCN(Cn2cnc3ccccc32)CC1 [BI-P, N,N'-Bis(Benzimidazol-1-yl Methyl) Piperazine]	N		
1Bis(2-ethylhexyl)aminomethyltolyltriazole [TTA-EH, reference compound]		S	
N,N'-Bis(Methylcyclohexyltriazol-1-yl Methyl) Piperazine [HTTA-P]	N		Chemical Embossing Depth [2, 5]: 8.5 mils
